Test results as given in patent US9249154B2, “Compounds and therapeutic use thereof for protein kinase inhibition” (priority 2008, dated 2016).

Tested on: transplanted human colon cancer HT-99
Experiment: Effects on HT99 transplanted nude mice
Format: in vivo
Conditions: 60 mg/kg ip, d0, 1; d0 = 0 days after drug treatment; X ± SD

Row | Compound | TV d0
1 | 2-(4-chlorophenyl)-4-(3-α-thiapyranmethy)-thieno[2,3-d]pyridazine-7-carboxylic acid amide [Compound 11] | 150 ± 15 mm^3
2 | NC(=O)c1nnc(CC2CCNCC2)c2cc(-c3ccc(Cl)cc3)sc12 [Compound 5, 2-(4-chlorophenyl)-4-(4-piperidinemethy)-thieno[2,3-d]pyridazine-7-carboxylic acid amide] | 150 ± 16 mm^3
